Data reported in patent publication US20150368327A1.
Results are given in words; binding and its absence hold for the method and conditions named. Some entries that bind do so weakly or less than the wild type. Where a sequence is shown, tags or fusion partners need not be part of it. Values belong to the binder of their own block, whether it stands above or below them.

What was measured:
[1] = target: T1, recombinant human Sema 3A-Fc chimeric protein (R&D systems, #1250-S3-02J) (human) (UniProt Q14563); assay: sandwich ELISA, serum-free samples: capture Humanized-2, Sema 3A-Fc varied, primary antibody of clone No. 165 at 0.1 µg/mL, anti-mouse IgG-HRP
T1 sequence (looked up): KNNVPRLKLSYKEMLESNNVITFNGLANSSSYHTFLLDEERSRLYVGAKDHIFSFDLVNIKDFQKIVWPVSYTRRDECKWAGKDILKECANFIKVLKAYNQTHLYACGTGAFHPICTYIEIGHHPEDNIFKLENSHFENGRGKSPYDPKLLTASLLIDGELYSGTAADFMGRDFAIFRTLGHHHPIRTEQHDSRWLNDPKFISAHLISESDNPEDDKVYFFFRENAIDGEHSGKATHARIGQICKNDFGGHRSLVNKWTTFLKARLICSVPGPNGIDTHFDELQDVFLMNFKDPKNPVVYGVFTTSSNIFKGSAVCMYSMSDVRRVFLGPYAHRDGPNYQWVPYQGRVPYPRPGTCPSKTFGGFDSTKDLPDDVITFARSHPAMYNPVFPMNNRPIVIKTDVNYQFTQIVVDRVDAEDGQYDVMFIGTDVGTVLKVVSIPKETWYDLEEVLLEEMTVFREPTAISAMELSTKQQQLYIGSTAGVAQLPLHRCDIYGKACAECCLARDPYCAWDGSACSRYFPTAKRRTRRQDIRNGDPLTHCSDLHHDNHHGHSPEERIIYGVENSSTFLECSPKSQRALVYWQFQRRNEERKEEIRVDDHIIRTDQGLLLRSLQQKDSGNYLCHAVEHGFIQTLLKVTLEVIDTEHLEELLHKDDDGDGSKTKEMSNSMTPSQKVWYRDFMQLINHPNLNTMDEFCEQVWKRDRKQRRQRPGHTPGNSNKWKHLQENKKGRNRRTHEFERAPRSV

[2] = target: T1, recombinant human Sema 3A-Fc chimeric protein (R&D systems, #1250-S3-02J) (human); assay: sandwich ELISA, samples in human serum diluted five times: capture Humanized-2, Sema 3A-Fc varied, primary antibody of clone No. 165 at 0.1 µg/mL, anti-mouse IgG-HRP
[3] = target: T1, recombinant human Sema 3A-Fc chimeric protein (R&D systems, #1250-S3-02J) (human); assay: sandwich ELISA, serum-free samples: capture Humanized-2, Sema 3A-Fc varied, primary avian antibody of clone No. 255-72 at 0.1 µg/mL, biotin-labelled anti-avian IgM and streptavidin-HRP
[4] = target: T1, recombinant human Sema 3A-Fc chimeric protein (R&D systems, #1250-S3-02J) (human); assay: sandwich ELISA, serum-free samples, Condition 6; this antibody as capture, clone No. 4-2 avian-mouse chimeric antibody as primary
[5] = target: T1, recombinant human Sema 3A-Fc chimeric protein (R&D systems, #1250-S3-02J) (human); assay: sandwich ELISA, serum-free samples, Condition 8; this antibody as capture, clone No. 4-2 avian-mouse chimeric antibody as primary
[6] = target: T1, recombinant human Sema 3A-Fc chimeric protein (R&D systems, #1250-S3-02J) (human); assay: sandwich ELISA, serum-free samples: capture Humanized-2, Sema 3A-Fc varied, primary antibody of clone No. 582 at 0.1 µg/mL, anti-mouse IgG-HRP
[7] = target: T1, recombinant human Sema 3A-Fc chimeric protein (R&D systems, #1250-S3-02J) (human); assay: sandwich ELISA, samples in human serum diluted five times: capture Humanized-2, Sema 3A-Fc varied, primary antibody of Condition 2 (clone No. 582 by Table 7; the legend box of the panel reads 165) at 0.1 µg/mL, anti-mouse IgG-HRP
[8] = target: T1, recombinant human Sema 3A-Fc chimeric protein (R&D systems, #1250-S3-02J) (human); assay: sandwich ELISA, serum-free samples, Condition 7; this antibody as capture, clone No. 4-2 avian-mouse chimeric antibody as primary
[9] = target: T1, recombinant human Sema 3A-Fc chimeric protein (R&D systems, #1250-S3-02J) (human); assay: sandwich ELISA, serum-free samples: capture Humanized-2, Sema 3A-Fc varied, primary avian antibody of clone No. 240-40 at 0.1 µg/mL, biotin-labelled anti-avian IgM and streptavidin-HRP
[10] = target: T1, recombinant human Sema 3A-Fc chimeric protein (R&D systems, #1250-S3-02J) (human); assay: sandwich ELISA, serum-free samples, Condition 5; this antibody as capture, clone No. 4-2 avian-mouse chimeric antibody as primary
[11] = target: T1, recombinant human Sema 3A-Fc chimeric protein (R&D systems, #1250-S3-02J) (human); assay: sandwich ELISA, serum-containing samples, Condition 2; this antibody as capture, clone No. 582 avian-mouse chimeric antibody as primary
[12] = target: T1, recombinant human Sema 3A-Fc chimeric protein (R&D systems, #1250-S3-02J) (human); assay: sandwich ELISA, serum-free samples, Condition 1; this antibody as capture, clone No. 165 avian-mouse chimeric antibody as primary
[13] = target: T1, recombinant human Sema 3A-Fc chimeric protein (R&D systems, #1250-S3-02J) (human); assay: sandwich ELISA, serum-free samples, Condition 2; this antibody as capture, clone No. 582 avian-mouse chimeric antibody as primary
[14] = target: T1, recombinant human Sema 3A-Fc chimeric protein (R&D systems, #1250-S3-02J) (human); assay: sandwich ELISA, samples in human serum diluted five times: Humanized-2 coated as capture antibody, Sema 3A-Fc about 0.001 to 2 nM, primary antibodies of Conditions 1 and 2
[15] = target: T1, recombinant human Sema 3A-Fc chimeric protein (R&D systems, #1250-S3-02J) (human); assay: sandwich ELISA, serum-free samples, Condition 4; this antibody as capture, clone No. 255-72 avian antibody as primary
[16] = target: T1, recombinant human Sema 3A-Fc chimeric protein (R&D systems, #1250-S3-02J) (human); assay: sandwich ELISA, serum-free samples: Humanized-2 coated as capture antibody, Sema 3A-Fc about 0.001 to 1 nM, primary antibodies m9, m10, m11, m12 at 0.1 µg/mL
[17] = target: T1, recombinant human Sema 3A-Fc chimeric protein (R&D systems, #1250-S3-02J) (human); assay: sandwich ELISA, serum-containing samples, Condition 1; this antibody as capture, clone No. 165 avian-mouse chimeric antibody as primary
[18] = target: T1, recombinant human Sema 3A-Fc chimeric protein (R&D systems, #1250-S3-02J) (human); assay: sandwich ELISA, serum-free samples, Condition 3; this antibody as capture, clone No. 240-40 avian antibody as primary

binding [1]: binds | binding [2]: binds
B1: Anti-Sema 3A avian-mouse chimeric antibody (clone No. 165 strain-derived) (antibody, V domains shown)
VH: AVTLDESGGGLQTPGGGLSLVCKASGFTFSSYEMQWVRQAPGKGLEWVAGIYTGSTWYGAAVKGRATISRDNGQSTVRLQLNNLRAEDTAIYYCAKSGIGVNSAAFIDAWGHGTEVIVSS
VL: ALTQPASVSANPGETVKITCSGGGSYGGSYYYGWYQQKAPGSAPVTVIYNNNKRPSNIPSRFSGSLSGSTNTLTITGVRADDEAVYFCGSADNSGTAFGAGTTLTVL

binding [3]: binds | binding [4]: binds
B2: Anti-Sema 3A avian antibody (clone No. 255-72 strain-derived) (antibody, V domains shown)
VH: AVTLDESGGGLQTPGGALSLVCKASGFTFSSYEMQWVRQAPGKGLEWVAGIYSGSTWYGAAVKGRATISRDNGQSTVRLQLNNLRAEDTGTYYCAKSGIGFNSAGSIDAWGHGTEVIVSS
VL: ALTQPASVSANPGETVKITCSGGGSYGGSYYYSWHQQKSPGSALVTVIYYNNKRPSDIPSRFSGSLSGSTNTLTITGVRADDEAVYFCGSADNSGSAFGAGTTLTVL

binding [5]: binds
B3: Anti-Sema 3A avian-human chimeric antibody (IgG1) (clone No. 255-72 strain-derived) (antibody, V domains shown)
VH: AVTLDESGGGLQTPGGALSLVCKASGFTFSSYEMQWVRQAPGKGLEWVAGIYSGSTWYGAAVKGRATISRDNGQSTVRLQLNNLRAEDTGTYYCAKSGIGFNSAGSIDAWGHGTEVIVSS
VL: ALTQPASVSANPGETVKITCSGGGSYGGSYYYSWHQQKSPGSALVTVIYYNNKRPSDIPSRFSGSLSGSTNTLTITGVRADDEAVYFCGSADNSGSAFGAGTTLTVL

binding [6]: binds | binding [7]: binds
B4: Anti-Sema 3A avian-mouse chimeric antibody (clone No. 582 strain-derived) (antibody, V domains shown)
VH: AVTLDESGGGLQTPGGALSLVCKASGFTMSSYEMQWVRQAPGKGLEWVAAIYTRSTWYGAAVKGRATISRDNGQSTVRLQLNNLRAEDTGTYYCAKSGIGLNSAAFIDAWGHGTEVIVSS
VL: ALTQPASVSANPGETVKITCSGGGSYGGSYYYGWYQQKAPGSAPVTVIYTNNKRPSNIPSRFSGSLSGSTNTLTITGVRADDEAVYFCGSADNSGTAFGAGTTLTVL

binding [8]: binds
B5: Anti-Sema 3A avian-human chimeric antibody (IgG1) (clone No. 240-40 strain-derived) (antibody, V domains shown)
VH: AVTLDESGGGLQTPGGALSLVCKASGFTFSSYDMNWVRQAPGKGLEWVAGIYSGSSTYYGAAVKGRATISRDNGQSTLRLQLNNLRAEDTGIYYCAKSAIPVNSAGSIDAWGHGTEVIVSS
VL: ALTQPASVSANPGETVKITCSGGGSYGGSYYYSWHQQKSPGSALVTVIYYNNKRPSDIPSRFSGSLSGSTNTLTITGVRADDEAVYFCGSADTSGTAFGAGTTLTVL

binding [9]: binds | binding [10]: binds
B6: Anti-Sema 3A avian antibody (clone No. 240-40 strain-derived) (antibody, V domains shown)
VH: AVTLDESGGGLQTPGGALSLVCKASGFTFSSYDMNWVRQAPGKGLEWVAGIYSGSSTYYGAAVKGRATISRDNGQSTLRLQLNNLRAEDTGIYYCAKSAIPVNSAGSIDAWGHGTEVIVSS
VL: ALTQPASVSANPGETVKITCSGGGSYGGSYYYSWHQQKSPGSALVTVIYYNNKRPSDIPSRFSGSLSGSTNTLTITGVRADDEAVYFCGSADTSGTAFGAGTTLTVL

binding [11]: binds | binding [12]: binds | binding [13]: binds | binding [14]: binds | binding [15]: binds | binding [16]: binds | binding [17]: binds | binding [18]: binds
B7: Anti-Sema 3A humanized antibody (Humanized-2) (clone No. 4-2 strain-derived) (antibody, human IgG1, lambda, V domains shown)
VH: EVQLLESGGGLVQPGGSLRLSCAASGFTFSSYPMGWVRQAPGKGLEWVAGIDDDGDSDTRYAPAVKGRATISRDNSKNTVYLQMNSLRAEDTAVYYCAKHTGIGANSAGSIDAWGQGTLVTVSS
VL: SYELTQPPSVSVSPGQTARITCSGGGSYTGSYYYGWYQQKPGQAPVTVIYYNNKRPSDIPERFSGSLSGTTNTLTISGVQAEDEADYYCGSADNSGDAFGTGTKVTVLG
